For at least one compound, name, drawing or mass did not settle the structure.
Columns and labels:
[1] = tested on: TGF-β1 injection into the rat TA (animal model for PD); assay: Animal model for PD: assessment of erectile function (intracavernous pressure, ICP); type: in vivo, Male Sprague-Dawley rats; settings: tamoxifen 5 mg/kg/day i.p., vardenafil 1.5 mg/kg/day drinking water, 5 weeks
[2] = tested on: TGF-β1 injection into the rat TA (animal model for PD), penile fibrosis; assay: Animal model for PD: molecular and histological analysis of penile tissue (qPCR, Western blot, immunohistochemistry); type: in vivo, Male Sprague-Dawley rats
Excerpt: The animal model for PD was first described by […] Lue^18 and modified by Bivalacqua and Hellstrom^19. Male Sprague-Dawley rats (10-12 weeks old) were housed in a regulated environment with a 12-hour light/dark cycle in a standard experimental laboratory. The animals had free access to food and water ad libitum. Fifty male Sprague-Dawley rats were divided into 5 groups: A: sham (injection of vehicle citrate buffer), B: […] Treatment was initiated at the day after injury and continued for 5 weeks followed by a 48 hours wash-out period. The High-Capacity cDNA Reverse Transcription Kit (Applied Biosystems) was used according to the manufacturer's instructions to transcribe RNA to cDNA. One μg in 10 μl were added to 10 μl of the master mix for reverse transcription for a total reaction volume of 20 μl. After reverse transcription the cDNA was diluted 1:10 for qPCR. The Applied BiosystemsTM TaqManTM Fast Advanced Master Mix was used for qPCR. Gene specific primer pairs for GAPDH, beta-actin, alpha smooth muscle actin, elastin, and collagens I, III, and V were purchased from Applied Biosystems. […] Data was analysed using the 2-ΔΔCt method for relative quantifications. […] Statistical significance, unless otherwise stated, was calculated using one or two-way ANOVA and Student's t-test for unpaired means (two-sided). […]

## CCCc1nc(C)c2c(=O)[nH]c(-c3cc(S(=O)(=O)N4CCN(CC)CC4)ccc3OCC)nn12 [vardenafil]
[1]
  TGF-β1-induced decrease in erectile function (ICP) by 55%: prevented
[2]; 5 weeks treatment, qPCR
  TGF-β1-induced upregulation of collagen expression (collagens I, III, V mRNA) in penile tissue: prevented
[2]; FIG. 5
  penile fibrosis in an animal model for PD: ameliorate penile fibrosis
